The other results are listed elsewhere or left out.
Target: OsWRKY34 (Oryza sativa, UniProt Q0JBA9 1-250)
Experiment: protein-binding microarray (RPBM); PBS, 2% BSA, 51.3 ng/ul salmon testes DNA, 50 uM zinc acetate, 200 nM TF, 25 C, 1 h; high values mean tight binding
Settings: protein: recombinant; tags: N-terminal polyhistidine and DsRed monomer fusion (pET32a); label: CyDye5-dUTP incorporated in the synthesized complementary strand; 3' TTTTT single-stranded linker to array surface; dsDNA, one strand shown
Outline: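 Transcription factors, each fused N-terminally to a polyhistidine tag and DsRed, were expressed in E. coli BL21-CodonPlus and purified on Ni–NTA. A custom Agilent array was made double-stranded by primer extension with Cy5-dUTP and blocked with 2% BSA. It was incubated with 200 nM protein in PBS, 2% BSA, salmon testes DNA and 50 µM zinc acetate at 25 °C for 1 h, then washed. The binding signal is per-feature fluorescence intensity (arbitrary units) read on an Axon 4000B scanner.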

Chains of the proteins cited; added tags and fusions are not shown.
UniProt Q0JBA9, entry or part of it: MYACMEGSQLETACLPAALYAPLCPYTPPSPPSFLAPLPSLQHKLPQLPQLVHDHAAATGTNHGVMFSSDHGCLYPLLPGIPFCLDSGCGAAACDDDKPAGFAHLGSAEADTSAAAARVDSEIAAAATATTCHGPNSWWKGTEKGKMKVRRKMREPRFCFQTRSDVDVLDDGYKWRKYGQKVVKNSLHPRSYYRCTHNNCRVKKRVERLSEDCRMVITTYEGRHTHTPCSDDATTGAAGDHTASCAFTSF

**Q.** How did the binding signal turn out when “CTTCCCTTCGCCATGTCCGTCTCCGCCGCCGTCGCCGCCGCGGAGTCACCTAGTGCAG” was run?
**A.** 8480 fluorescence intensity (a.u.)

**Q.** Which binding signal does the source give for “GTGGTTTTTTTTCCTGATAGTCACAATTTTAGTTACTTTTCGGAGTCACCTAGTGCAG” here?
**A.** 10700 fluorescence intensity (a.u.)

**Q.** How did the binding signal turn out when “TAATTTTAGAGTTGGTTTTGGAGTTTTTTTTCATCGTAGTCGGAGTCACCTAGTGCAG” was run?
**A.** 10700 fluorescence intensity (a.u.)

**Q.** For “TATCCCTGTTGCTATTCTCGCTACTTAAACGCCACGTTACCGGAGTCACCTAGTGCAG”, which binding signal is on record?
**A.** 9860 fluorescence intensity (a.u.)

**Q.** How did the binding signal turn out when “ATCCTTGCGTACTGTTCATCTTCTTCCTCCGTCAGTTCATCGGAGTCACCTAGTGCAG” was run?
**A.** 8120 fluorescence intensity (a.u.)

**Q.** Which binding signal does the source give for “GTCCTGGTGGTGCGTTTTAAACCAAACCCGAAATCGCTGACGGAGTCACCTAGTGCAG” here?
**A.** 8230 fluorescence intensity (a.u.)

**Q.** How did the binding signal turn out when “GTATATATTTAACTGGGGCTAATACTTCATTCTCAGCTTTCGGAGTCACCTAGTGCAG” was run?
**A.** 8340 fluorescence intensity (a.u.)

**Q.** “CGGTGGCCTCCTTCCCACAGCGCTGCCTGTTGCCGGCCTGCGGAGTCACCTAGTGCAG” was tested. Which binding signal did it give?
**A.** 8060 fluorescence intensity (a.u.)

**Q.** Which binding signal does the source give for “ACGCACATCCCTCCGCCACCGATTTGTTGTCCCCGCCGCCCGGAGTCACCTAGTGCAG” here?
**A.** 9020 fluorescence intensity (a.u.)

**Q.** Which binding signal does the source give for “ATATTTCTCAGCAAAACTGAGGCCATATCTTTCATAGTATCGGAGTCACCTAGTGCAG” here?
**A.** 8620 fluorescence intensity (a.u.)

**Q.** “GTGTTCAGTTCTCTTGCTAATTTTTTTTTAAGTATACAGACGGAGTCACCTAGTGCAG” was tested. Which binding signal did it give?
**A.** 8740 fluorescence intensity (a.u.)

**Q.** With “ATTCACTTTCTTGATTACGTAGAAGCTTCAGTGTCTATTCCGGAGTCACCTAGTGCAG” as the sequence, how does the binding signal read?
**A.** 10200 fluorescence intensity (a.u.)

**Q.** With “ATGTTTAAGTCAGTTTTTAAGTTCGTTCTTTTTAAAACTCCGGAGTCACCTAGTGCAG” as the sequence, how does the binding signal read?
**A.** 8290 fluorescence intensity (a.u.)

**Q.** For “GTGGTGTTGTTCCTCGTCTACGTGCTCGCGGTGCTTGTGCCGGAGTCACCTAGTGCAG”, which binding signal is on record?
**A.** 10700 fluorescence intensity (a.u.)

**Q.** How did the binding signal turn out when “GCTCCTTCTCGCGCTACCCAGCGAACAGCCGCCGCTTCCACGGAGTCACCTAGTGCAG” was run?
**A.** 9620 fluorescence intensity (a.u.)

**Q.** With “ATTGATTGCCCAACTATTACTACCTTCCTGTTTTTTTCTTCGGAGTCACCTAGTGCAG” as the sequence, how does the binding signal read?
**A.** 8160 fluorescence intensity (a.u.)

**Q.** Which binding signal does the source give for “ATGTTCTGCCCATGCTTTACTTGCTCCCTGTGCACAAACACGGAGTCACCTAGTGCAG” here?
**A.** 11400 fluorescence intensity (a.u.)

**Q.** With “AGGATGGGGTTTTGTGGTACGTGATCATAGTGGATGCTGTCGGAGTCACCTAGTGCAG” as the sequence, how does the binding signal read?
**A.** 8710 fluorescence intensity (a.u.)

**Q.** For “CATCACTACTTCAGTCCAGCCCTGTACATGTACATATATACGGAGTCACCTAGTGCAG”, which binding signal is on record?
**A.** 8480 fluorescence intensity (a.u.)

**Q.** How did the binding signal turn out when “ACTCGATCACCGCCTCCACCATCACCACCACCACCGCACGCGGAGTCACCTAGTGCAG” was run?
**A.** 10600 fluorescence intensity (a.u.)

**Q.** “AATAGATGACATTGTTGACTTATTCTTACATGTTTGCCCACGGAGTCACCTAGTGCAG” was tested. Which binding signal did it give?
**A.** 9350 fluorescence intensity (a.u.)

**Q.** For “ATGACACTTTCTTAGAGTTACTATTGTTTATTTTTCGCGTCGGAGTCACCTAGTGCAG”, which binding signal is on record?
**A.** 10700 fluorescence intensity (a.u.)

**Q.** “TCCCATTACTACATCGTCATTGTGTTCAACTATTGCACTACGGAGTCACCTAGTGCAG” was tested. Which binding signal did it give?
**A.** 9380 fluorescence intensity (a.u.)

**Q.** “AGTTCCAGCTCTCTCTCTCTCGTCTTATTGTTGGTCGTTGCGGAGTCACCTAGTGCAG” was tested. Which binding signal did it give?
**A.** 8710 fluorescence intensity (a.u.)

**Q.** How did the binding signal turn out when “GGGGAGTTGGGATTTTTGGCGATGTGGGTTTCGTACACCGCGGAGTCACCTAGTGCAG” was run?
**A.** 9870 fluorescence intensity (a.u.)

**Q.** For “CTTTTTTTTTTTCCCTCCTGCTCTCATCTCAGCCTCTCACCGGAGTCACCTAGTGCAG”, which binding signal is on record?
**A.** 8800 fluorescence intensity (a.u.)

**Q.** With “CGCTGTTGCACCGCCTCCAGCTCGTCCACTACCTCACCACCGGAGTCACCTAGTGCAG” as the sequence, how does the binding signal read?
**A.** 8050 fluorescence intensity (a.u.)

**Q.** “AAGAAGATCCACTCGTCCCTCGAGCCAACCTGACGACAACCGGAGTCACCTAGTGCAG” was tested. Which binding signal did it give?
**A.** 8120 fluorescence intensity (a.u.)

**Q.** Which binding signal does the source give for “GAGAGAGTGTAGGTTGCCGATGACGTTCCAAATATTGATCCGGAGTCACCTAGTGCAG” here?
**A.** 8260 fluorescence intensity (a.u.)

**Q.** How did the binding signal turn out when “CTTTTAGACGCCACTATTGTACTTGTATTTTTTTTTGGGTCGGAGTCACCTAGTGCAG” was run?
**A.** 9940 fluorescence intensity (a.u.)

**Q.** How did the binding signal turn out when “GCGGAGGCGCGCCGCCTACAAGCCGAGCGTTGACTCACATCGGAGTCACCTAGTGCAG” was run?
**A.** 10500 fluorescence intensity (a.u.)

**Q.** With “TTGTATAAGGGCACGGTCTCCAAAAAACAACTTTGACCATCGGAGTCACCTAGTGCAG” as the sequence, how does the binding signal read?
**A.** 8030 fluorescence intensity (a.u.)

**Q.** How did the binding signal turn out when “CTCCTTTGTTTGCTCTGACCTCCCAATTCACAGCTGGGTCCGGAGTCACCTAGTGCAG” was run?
**A.** 10100 fluorescence intensity (a.u.)

**Q.** How did the binding signal turn out when “AATGTATGACGCCGTTGACTTTTTAACAAATATTTGACATCGGAGTCACCTAGTGCAG” was run?
**A.** 20300 fluorescence intensity (a.u.)

**Q.** For “TTCCAGTCGTCGCCTAAATTAGCGTATCAGTTCCAGTTGTCGGAGTCACCTAGTGCAG”, which binding signal is on record?
**A.** 8200 fluorescence intensity (a.u.)

**Q.** “GTCAAGCTCGTCCGTCAATTGCATCTTTCACCAAGAAAACCGGAGTCACCTAGTGCAG” was tested. Which binding signal did it give?
**A.** 9030 fluorescence intensity (a.u.)

**Q.** Which binding signal does the source give for “ATTTATCCCTGCCTCCAAAATCGTCTCATTTCTAGTATTTCGGAGTCACCTAGTGCAG” here?
**A.** 8610 fluorescence intensity (a.u.)

**Q.** “TCCTCATGCCTCTTTTTCCTCCTCCTTCCTTCTCTCATTCCGGAGTCACCTAGTGCAG” was tested. Which binding signal did it give?
**A.** 10200 fluorescence intensity (a.u.)

**Q.** With “CGCGCGCAATTGCTTTCCGTGTCCCGCGCCCCGCTAACTCCGGAGTCACCTAGTGCAG” as the sequence, how does the binding signal read?
**A.** 8280 fluorescence intensity (a.u.)

**Q.** With “ATGATGTATGGTTTTTGTGCTTGTTGAATTCGTTTGAGAACGGAGTCACCTAGTGCAG” as the sequence, how does the binding signal read?
**A.** 8480 fluorescence intensity (a.u.)

**Q.** For “TGCTCAAACATTTTTATTGCCTTATTAACATTTATTTCTTCGGAGTCACCTAGTGCAG”, which binding signal is on record?
**A.** 9250 fluorescence intensity (a.u.)

**Q.** With “GGGAGGGAGCCAGAGCGGCGGGCGTGGGGTTGGAGGAGGGCGGAGTCACCTAGTGCAG” as the sequence, how does the binding signal read?
**A.** 9900 fluorescence intensity (a.u.)

**Q.** “TTAGCTTATCAGTACACCTAACCAACTGTTTCACCATGCACGGAGTCACCTAGTGCAG” was tested. Which binding signal did it give?
**A.** 8120 fluorescence intensity (a.u.)

**Q.** For “AACGCTGCCTACGATACATGCCCTCACATTATCTTCCTATCGGAGTCACCTAGTGCAG”, which binding signal is on record?
**A.** 11200 fluorescence intensity (a.u.)

**Q.** “CCATCCAACTTCAGTTGTAACTGTCGTGTTTCCTCTGATTCGGAGTCACCTAGTGCAG” was tested. Which binding signal did it give?
**A.** 8270 fluorescence intensity (a.u.)

**Q.** For “TTTTTTTCTGAAAACAGAAGAGAGTGTTTTGTGTTTTTTACGGAGTCACCTAGTGCAG”, which binding signal is on record?
**A.** 8030 fluorescence intensity (a.u.)

**Q.** For “TCGAAATGTTTGACACCGTTGACTTTTTAGCACATGTTTACGGAGTCACCTAGTGCAG”, which binding signal is on record?
**A.** 19000 fluorescence intensity (a.u.)

**Q.** For “CTTCTCAGCAATGAGGTTTTTGTTATAATTGTTTTTGCTACGGAGTCACCTAGTGCAG”, which binding signal is on record?
**A.** 8590 fluorescence intensity (a.u.)

**Q.** For “CCGCGCCCGCCTCGCCGACTTTGGTCTCTCCCGCATCAATCGGAGTCACCTAGTGCAG”, which binding signal is on record?
**A.** 10400 fluorescence intensity (a.u.)

**Q.** How did the binding signal turn out when “GGGGCTCATTTAGTCATTTACACGAGTGGCTGTTCAATTCCGGAGTCACCTAGTGCAG” was run?
**A.** 9700 fluorescence intensity (a.u.)

**Q.** “TTGCTGCCACTCTGCCATAAGCTTCCATCCTATCAAGCACCGGAGTCACCTAGTGCAG” was tested. Which binding signal did it give?
**A.** 8260 fluorescence intensity (a.u.)

**Q.** Which binding signal does the source give for “CTGTAATTTTCTTTTTCTAATTGATGTGCCACGTAAACGCCGGAGTCACCTAGTGCAG” here?
**A.** 8210 fluorescence intensity (a.u.)

**Q.** How did the binding signal turn out when “GTTTGGATTATACTGTATTGATCGGCGATCTTTTCGCCGCCGGAGTCACCTAGTGCAG” was run?
**A.** 8760 fluorescence intensity (a.u.)

**Q.** How did the binding signal turn out when “CGGCTAGTATATGTCTGTCTGTGTGTCTGTCGTGCATAATCGGAGTCACCTAGTGCAG” was run?
**A.** 9460 fluorescence intensity (a.u.)
